Data as given in PubChem BioAssay AID1259424 (University of Nebraska Medical Center, 2018).

Aim: 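Seek colon cancer survival genes behaving like KSR1, using a six-gene signature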 (primary screen)
Cells: human HCT116 colon cancer cells
Reagent: siRNA pool against human genes, 50 nM
Measured: 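Six signature mRNAs by branched-DNA multiplex assay, scaled to two housekeeping genes and non-targeting median, log2; matched to mean KSR1 knockdown profile by Pearson correlation and euclidean distance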
Reading the numbers: mean correlation with KSR1 profile: higher = expression change more like KSR1 knockdown
This is an unselected part of about 14,000 reagents. 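Higher correlation or smaller distance means closer resemblance to KSR1 loss; control wells, including KSR1 knockdowns, recur on many plates.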 Further read-outs or replicates are left out here. Not given: the time to read-out.

SLC6A11 | mean correlation with KSR1 profile: -0.421
CCNH | mean correlation with KSR1 profile: -0.52
GCLC | mean correlation with KSR1 profile: -0.15
GLB1 | mean correlation with KSR1 profile: 0.203
LRBA | mean correlation with KSR1 profile: 0.634
GABRG2 | mean correlation with KSR1 profile: -0.0682
TST | mean correlation with KSR1 profile: -0.131
SLC9A3-OT1 | mean correlation with KSR1 profile: -0.283
PRDM16 | mean correlation with KSR1 profile: 0.505
ARL6IP5 | mean correlation with KSR1 profile: -0.317
GLA | mean correlation with KSR1 profile: 0.477
KRT73 | mean correlation with KSR1 profile: 0.347
AASS | mean correlation with KSR1 profile: 0.181
FASLG | mean correlation with KSR1 profile: 0.182
LPGAT1 | mean correlation with KSR1 profile: -0.823
BMAL2 | mean correlation with KSR1 profile: 0.731
MGAT4C | mean correlation with KSR1 profile: -0.706
PKD2L2 | mean correlation with KSR1 profile: 0.365
KCNJ2 | mean correlation with KSR1 profile: -0.404
TSPAN6 | mean correlation with KSR1 profile: 0.0468
CGRRF1 | mean correlation with KSR1 profile: 0.105
AGPS | mean correlation with KSR1 profile: -0.562
DENND1B | mean correlation with KSR1 profile: -0.272

Targets listed so far whose gene name begins with S or s (2):
SLC6A11 | mean correlation with KSR1 profile: -0.421
SLC9A3-OT1 | mean correlation with KSR1 profile: -0.283

Next reagents:
CCDC142 | mean correlation with KSR1 profile: 0.878
XBP1 | mean correlation with KSR1 profile: -0.587
FAR1 | mean correlation with KSR1 profile: 0.95
SCRN3 | mean correlation with KSR1 profile: 0.614
CRYGA | mean correlation with KSR1 profile: -0.304
THNSL1 | mean correlation with KSR1 profile: 0.108
STOML2 | mean correlation with KSR1 profile: -0.433
TRIM25 | mean correlation with KSR1 profile: 0.536
HMGB1P10 | mean correlation with KSR1 profile: 0.37
FOXO3 | mean correlation with KSR1 profile: -0.355
RSPRY1 | mean correlation with KSR1 profile: 0.0533
PDE7A | mean correlation with KSR1 profile: 0.00139
BMP10 | mean correlation with KSR1 profile: -0.0405
